This note sets out measurements from PubChem BioAssay AID330 (DTP/NCI, 2004).

This assay concerns P388 leukemia ip, CD2F1 mice, survival T/C. Put plainly: NCI In Vivo Anticancer Drug Screen. Data for tumor model P388 Leukemia (intraperitoneal) in CD2F1 (CDF1) mice. The conditions noted are these: T/C endpoint: median survival time, higher T/C = longer survival.
Setting [1] is: dose: 200.0 mg/kg/injection, schedule: Q01DX009 (ip), vehicle: saline with Tween-80.
[2] abbreviates: dose: 100.0 mg/kg/injection, schedule: Q01DX009 (ip), vehicle: saline with Tween-80.
[3] abbreviates: dose: 100.0 mg/kg/injection, schedule: Q01DX009 (ip), vehicle: Klucel (hydroxypropylcellulose) (HPC).
Where [4] appears, read: dose: 200.0 mg/kg/injection, schedule: Q01DX009 (ip), vehicle: saline.
Where [5] appears, read: dose: 100.0 mg/kg/injection, schedule: Q01DX005 (ip), vehicle: saline with Tween-80.
The mark [6] stands for this setting: dose: 200.0 mg/kg/injection, schedule: Q01DX005 (ip), vehicle: saline with Tween-80.
[7] abbreviates: dose: 100.0 mg/kg/injection, schedule: Q01DX009 (ip), vehicle: saline.
Setting [8] is: dose: 200.0 mg/kg/injection, schedule: Q01DX005 (ip), vehicle: saline.

Each structure is given as a SMILES string. The list does not hold the whole screen: it gathers tests that were run many times, whatever their T/C, doses with no T/C, and many T/C values between a quarter and a half above the control. Further doses and runs are listed elsewhere. T/C gives the treated animals as a percentage of the vehicle group. Some entries give survivors of the animals treated and no T/C: the source holds a T/C of zero for them, seemingly a mark for toxic or unscored doses. Some doses without a T/C left all or most animals alive at the check, yet need not have been tolerated: survival well below the control is almost never listed, so the zero probably covers shortened survival too. Survivors were counted at the toxicity check, usually on the fifth day, unless a day is given; later deaths do not show. Schedules are NCI's codes, taken here to give the interval after Q, in days (D) or hours (H), and the number of doses after X. Some entries were tested several times; their values stand side by side, smallest first. For survival time, this PubChem deposit counts one and a half times the control or more as active, and values a quarter to a half above the control carry no call in these data; other NCI protocols may use other cut-offs. Some T/C values carry the count of animals alive at the toxicity check (mostly the fifth day); without a count, all were alive then.

As to `CC(C)=NOc1ccc([N+](=O)[O-])cc1[N+](=O)[O-]`, under setting [1], the survivor count was 2 of 6.
Consider `CC(C)NCC(O)COc1ccccc1C1CCCCC1` (stereo unspecified), for which the survivor count is 4 of 6 under setting [2] and 0 of 6 under setting [1].
For `C=C1C(=O)O[C@@H]2[C@H](O)[C@@H](C)[C@@H]3C=CC(=O)[C@@]3(C)[C@@H](OC(=O)/C(C)=C/C)[C@H]12`, the T/C (dose: 3.0 mg/kg/injection, schedule: Q01DX009 (ip), vehicle: saline + alcohol) was 125 % of control. Besides, the survivor count runs as follows: (dose: 17.5 mg/kg/injection, schedule: Q01DX009 (ip), vehicle: saline + alcohol) 1 of 6; (dose: 25.0 mg/kg/injection, schedule: Q01DX009 (ip), vehicle: saline + alcohol) 2 of 4; (dose: 35.0 mg/kg/injection, schedule: Q01DX009 (ip), vehicle: saline + alcohol) 0 of 6.
Take `CS(=O)(=O)OC1COCOC1C1OCOCC1OS(C)(=O)=O` (stereo unspecified): the survivor count under setting [3] is given as 6 of 6.
In the case of `CC1(C)CCCC12C=NCC2` (stereo unspecified), the survivor count is reported as 0 of 6 under setting [2] and 0 of 6 under setting [1].
As to `COc1cc2cccc(O)c2cc1OC`, the survivor count is, setting by setting: (dose: 100.0 mg/kg/injection, schedule: Q01DX009 (ip), vehicle: other) 6 of 6; (dose: 400.0 mg/kg/injection, schedule: Q01DX009 (ip), vehicle: other) 3 of 6.
Regarding `c1ccc(CCN2CCC3(CC2)CO3)cc1`, the survivor count runs as follows: (dose: 100.0 mg/kg/injection, schedule: Q01DX001 (ip), vehicle: Klucel (hydroxypropylcellulose) (HPC)) 2 of 6; (dose: 200.0 mg/kg/injection, schedule: Q01DX001 (ip), vehicle: Klucel (hydroxypropylcellulose) (HPC)) 0 of 6; (dose: 400.0 mg/kg/injection, schedule: Q01DX001 (ip), vehicle: Klucel (hydroxypropylcellulose) (HPC)) 0 of 6.
Consider `CC(=O)O[C@@H]1C[C@H](O)[C@@]23COC(O)[C@H]1[C@@H]2C[C@@H](O)[C@@]1(C)C2C(=O)C[C@@H](c4ccoc4)[C@]2(C)CC[C@@H]13` (stereo partly specified), for which the survivor count reads like this: (dose: 0.3 mg/kg/injection, schedule: Q01DX009 (ip), vehicle: Klucel (hydroxypropylcellulose) (HPC)) 6 of 6; (dose: 0.6 mg/kg/injection, schedule: Q01DX009 (ip), vehicle: Klucel (hydroxypropylcellulose) (HPC)) 6 of 6; (dose: 1.2 mg/kg/injection, schedule: Q01DX009 (ip), vehicle: Klucel (hydroxypropylcellulose) (HPC)) 6 of 6.
On to `OC(/C=C/CC(O)(C(F)(F)F)C(F)(F)F)(C(F)(F)F)C(F)(F)F`, for which the survivor count under setting [4] was 6 of 6.
For the molecule `Cc1ccc2cccnc2c1NCCCCCNC(C)C`, the survivor count is 0 of 5 under setting [5] and 0 of 5 under setting [6].
For `Cc1cc(N2C(=O)CSC2=S)c([N+](=O)[O-])cc1C`, where the note is “dose: 200.0 mg/kg/injection, schedule: Q01DX009 (ip), vehicle: suspension in saline”, the survivor count is recorded as 6 of 6.
Take `Nc1[nH]c(=O)ncc1-c1ccc([N+](=O)[O-])cc1`: the survivor count is, setting by setting: under setting [5], 0 of 5; under setting [6], 0 of 5.
Turning to `CC1(C)C(c2ccccc2)C1(Cl)Cl` (stereo unspecified), the survivor count (dose: 400.0 mg/kg/injection, schedule: Q04DX002 (ip), vehicle: saline with Tween-80) is given as 6 of 6.
Take `CCOC(=O)NN(C(=O)OCC)/C(C(=O)OCC)=C(/C)N`: the survivor count is, setting by setting: under setting [7], 6 of 6; under setting [4], 5 of 6.
With `CCCCCC(=O)OCCN1CCN(CCCN2c3ccccc3Sc3ccc(C(F)(F)F)cc32)CC1`, the survivor count is 3 of 6 and 5 of 6 (dose: 50.0 mg/kg/injection, schedule: Q01DX009 (ip), vehicle: Klucel (hydroxypropylcellulose) (HPC)); 4 of 6 under setting [3]; 0 of 6 (dose: 200.0 mg/kg/injection, schedule: Q01DX009 (ip), vehicle: Klucel (hydroxypropylcellulose) (HPC)).
As to `CCCCN(CCNc1cc(OC)cc2cccnc12)C1CCCC1`, the survivor count under setting [8] is 0 of 5.
`CS(=O)(=O)OCCN(CCOS(C)(=O)=O)c1cccc(Cl)c1`: the T/C (dose: 5.0 mg/kg/injection, schedule: Q01DX009 (ip), vehicle: other) is 140 % of control.
As to `CC1([CH2][Hg][I])COCC([CH2][Hg][I])O1` (stereo unspecified), the survivor count (dose: 100.0 mg/kg/injection, schedule: Q04DX003 (ip), vehicle: saline with Tween-80) is listed as 0 of 6; the survivor count (dose: 200.0 mg/kg/injection, schedule: Q04DX003 (ip), vehicle: saline with Tween-80) is given as 0 of 6; the survivor count (dose: 400.0 mg/kg/injection, schedule: Q04DX003 (ip), vehicle: saline with Tween-80) is 0 of 6.
As for `[CH3][Ge]([CH3])([Cl])[c]1cc[c]([Ge]([CH3])([CH3])[Cl])cc1`, for the setting “dose: 25.0 mg/kg/injection, schedule: Q01DX009 (ip), vehicle: saline”, the T/C was 134 and 137 % of control [5 of 6 alive]. For the same molecule, the survivor count is 5 of 6 (dose: 50.0 mg/kg/injection, schedule: Q01DX009 (ip), vehicle: saline); 3 of 6 under setting [7]; 1 of 6 under setting [4]; 1 of 6 (dose: 200.0 mg/kg/injection, schedule: Q04DX003 (ip), vehicle: saline); 0 of 6 (dose: 400.0 mg/kg/injection, schedule: Q04DX003 (ip), vehicle: saline).
For `Cc1ncc([N+](=O)[O-])n1CCO`, the T/C is 127 % of control (dose: 16.0 mg/kg/injection, schedule: Q01DX009 (ip), vehicle: saline with Tween-80); 126 % of control (dose: 32.0 mg/kg/injection, schedule: Q01DX009 (ip), vehicle: saline with Tween-80); 127 % of control [5 of 6 alive] (dose: 256.0 mg/kg/injection, schedule: Q01DX009 (ip), vehicle: saline with Tween-80).
As to `Cn1nccc1N`, the survivor count runs as follows: under setting [7], 1 of 6; under setting [4], 0 of 6.
`CN1CCCCC1CCN1c2ccccc2Sc2ccc(S(C)=O)cc21` (stereo unspecified): for the setting “dose: 50.0 mg/kg/injection, schedule: Q01DX005 (ip), vehicle: saline”, the T/C is listed as 100, 102, 107, 124 % of control. Further, the survivor count (dose: 100.0 mg/kg/injection, schedule: Q01DX005 (ip), vehicle: saline) was 0 of 6 and the survivor count under setting [8] is reported as 0 of 6.
Turning to `CCN(CC)C(=O)C1CCN(Cc2c[nH]c3ccccc23)CC1`, the survivor count under setting [4] is on record as 1 of 6.
As for `C[n+]1ccccc1-c1ccc[n+](CCCC[n+]2cccc(-c3cccc[n+]3C)c2)c1`, the survivor count (dose: 240.0 mg/kg/injection, schedule: Q01DX005 (ip), vehicle: saline with Tween-80) is reported as 3 of 6.
